Laboratory results: publication doi:10.1101/2022.03.23.485409

Protein sequences, listed by entry. Tags and fused reporters are not part of them.
UniProt P52732: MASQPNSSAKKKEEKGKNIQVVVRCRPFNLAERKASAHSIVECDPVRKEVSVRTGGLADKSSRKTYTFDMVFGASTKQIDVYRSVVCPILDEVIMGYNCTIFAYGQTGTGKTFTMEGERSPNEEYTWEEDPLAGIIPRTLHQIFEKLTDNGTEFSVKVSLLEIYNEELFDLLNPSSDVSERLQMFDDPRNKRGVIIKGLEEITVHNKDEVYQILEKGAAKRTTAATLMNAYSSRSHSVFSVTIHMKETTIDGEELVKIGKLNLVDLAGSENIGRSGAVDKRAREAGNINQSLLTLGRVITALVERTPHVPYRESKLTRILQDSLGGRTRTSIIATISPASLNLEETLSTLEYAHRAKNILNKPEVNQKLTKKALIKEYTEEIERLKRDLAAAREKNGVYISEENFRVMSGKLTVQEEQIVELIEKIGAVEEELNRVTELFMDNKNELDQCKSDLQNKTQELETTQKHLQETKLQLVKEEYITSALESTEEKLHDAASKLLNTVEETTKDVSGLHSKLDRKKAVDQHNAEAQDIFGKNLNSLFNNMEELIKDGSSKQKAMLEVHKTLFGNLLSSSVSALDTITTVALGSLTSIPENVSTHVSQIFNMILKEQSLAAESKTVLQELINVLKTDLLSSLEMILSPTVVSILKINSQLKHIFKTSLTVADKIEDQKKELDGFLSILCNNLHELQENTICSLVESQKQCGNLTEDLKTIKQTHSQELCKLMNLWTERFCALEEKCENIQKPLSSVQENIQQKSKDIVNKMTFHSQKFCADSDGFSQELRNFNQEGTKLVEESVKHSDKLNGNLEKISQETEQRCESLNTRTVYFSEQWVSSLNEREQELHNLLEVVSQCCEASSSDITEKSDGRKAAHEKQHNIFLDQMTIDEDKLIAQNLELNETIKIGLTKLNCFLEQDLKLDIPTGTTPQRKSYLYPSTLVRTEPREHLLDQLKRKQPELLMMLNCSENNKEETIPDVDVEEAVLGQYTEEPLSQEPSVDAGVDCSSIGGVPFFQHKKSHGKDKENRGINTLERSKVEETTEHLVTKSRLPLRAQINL
UniProt P68871: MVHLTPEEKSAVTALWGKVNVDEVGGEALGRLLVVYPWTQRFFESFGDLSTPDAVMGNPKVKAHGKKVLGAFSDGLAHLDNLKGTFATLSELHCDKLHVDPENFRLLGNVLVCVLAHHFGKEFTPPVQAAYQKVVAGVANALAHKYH
UniProt O14744: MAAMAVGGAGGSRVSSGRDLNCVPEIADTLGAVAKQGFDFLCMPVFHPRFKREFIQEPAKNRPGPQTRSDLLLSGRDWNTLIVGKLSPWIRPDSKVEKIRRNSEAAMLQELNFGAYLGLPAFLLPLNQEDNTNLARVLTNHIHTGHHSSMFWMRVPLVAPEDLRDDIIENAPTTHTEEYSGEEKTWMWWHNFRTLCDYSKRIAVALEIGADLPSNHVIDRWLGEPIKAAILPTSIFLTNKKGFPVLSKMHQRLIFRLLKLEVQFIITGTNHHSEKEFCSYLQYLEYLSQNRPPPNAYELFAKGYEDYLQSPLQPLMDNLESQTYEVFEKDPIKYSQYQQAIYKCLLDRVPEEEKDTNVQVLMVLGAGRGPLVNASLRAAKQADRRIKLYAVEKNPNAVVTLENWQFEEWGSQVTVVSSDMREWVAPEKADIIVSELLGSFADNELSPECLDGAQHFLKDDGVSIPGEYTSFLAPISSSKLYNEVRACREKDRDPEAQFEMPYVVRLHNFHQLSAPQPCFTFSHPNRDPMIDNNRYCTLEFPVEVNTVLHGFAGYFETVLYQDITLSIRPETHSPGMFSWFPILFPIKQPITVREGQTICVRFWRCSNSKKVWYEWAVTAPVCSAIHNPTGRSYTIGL

T1: Flag-tagged EWSR1(2-325)-ATF1(66-271) fusion (UniProt Q01844)
T1 sequence: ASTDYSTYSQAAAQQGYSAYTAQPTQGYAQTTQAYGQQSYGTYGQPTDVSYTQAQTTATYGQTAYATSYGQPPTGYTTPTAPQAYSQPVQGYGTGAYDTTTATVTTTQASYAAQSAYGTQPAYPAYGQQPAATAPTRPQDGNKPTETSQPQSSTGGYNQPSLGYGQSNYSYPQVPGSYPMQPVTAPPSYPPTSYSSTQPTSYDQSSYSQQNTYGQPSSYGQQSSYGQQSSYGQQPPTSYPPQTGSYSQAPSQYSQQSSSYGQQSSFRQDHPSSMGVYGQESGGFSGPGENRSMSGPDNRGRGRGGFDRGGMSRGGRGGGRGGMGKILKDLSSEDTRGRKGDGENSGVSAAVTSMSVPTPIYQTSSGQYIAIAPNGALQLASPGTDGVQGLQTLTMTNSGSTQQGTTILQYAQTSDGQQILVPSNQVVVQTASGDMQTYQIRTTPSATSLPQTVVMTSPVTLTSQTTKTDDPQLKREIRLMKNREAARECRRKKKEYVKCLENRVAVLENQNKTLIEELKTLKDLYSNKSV


The molecules below were run against T1, Flag-tagged EWSR1(2-325)-ATF1(66-271) fusion (assay: affinity purification with mass spectrometry).

Row | binding | Molecule
1 | binds | KIF11 (from UniProt P52732 1-1056)
2 | binds | HBB (from UniProt P68871 1-147)
3 | binds | protein arginine methyltransferase 5 (PRMT5) (from UniProt O14744 1-637) (enzyme)
4 | binds | PTGES3 (protein, UniProt Q15185 1-160) MQPASAKWYDRRDYVFIEFCVEDSKDVNVNFEKSKLTFSCLGGSDNFKHLNEIDLFHCIDPNDSKHKRTDRSILCCLRKGESGQSWPRLTKERAKLNWLSVDFNNWKDWEDDSDEDMSNFDRFSEMMNNMGGDEDVDLPEVDGADDDSQDSDDEKMPDLE
5 | binds | PPM1B (protein, UniProt O75688 1-479) MGAFLDKPKTEKHNAHGAGNGLRYGLSSMQGWRVEMEDAHTAVVGIPHGLEDWSFFAVYDGHAGSRVANYCSTHLLEHITTNEDFRAAGKSGSALELSVENVKNGIRTGFLKIDEYMRNFSDLRNGMDRSGSTAVGVMISPKHIYFINCGDSRAVLYRNGQVCFSTQDHKPCNPREKERIQNAGGSVMIQRVNGSLAVSRALGDYDYKCVDGKGPTEQLVSPEPEVYEILRAEEDEFIILACDGIWDVMSNEELCEYVKSRLEVSDDLENVCNWVVDTCLHKGSRDNMSIVLVCFSNAPKVSDEAVKKDSELDKHLESRVEEIMEKSGEEGMPDLAHVMRILSAENIPNLPPGGGLAGKRNVIEAVYSRLNPHRESDGASDEAEESGSQGKLVEALRQMRINHRGNYRQLLEEMLTSYRLAKVEGEESPAEPAATATSSNSDAGNPVTMQESHTESESGLAELDSSNEDAGTKMSGEKI

Results are given in words; binding and its absence hold for the method and conditions named. Binding seen in cells or lysates may run through a third protein. Here binding means that the protein was enriched with, or labelled near, the bait; the list need not be complete. Sequences can lack the tags named with a protein.
